Laboratory results taken from paper PMC9359538.
These are yes or no findings as the source states them, for the method shown. Binding seen in cells or lysates may run through a third protein. A result given as binding can be weak or reduced; the word gives no strength.

Target: T1, annexin A1 (human (endogenous in A549 and 293)) (UniProt P04083)
T1 sequence: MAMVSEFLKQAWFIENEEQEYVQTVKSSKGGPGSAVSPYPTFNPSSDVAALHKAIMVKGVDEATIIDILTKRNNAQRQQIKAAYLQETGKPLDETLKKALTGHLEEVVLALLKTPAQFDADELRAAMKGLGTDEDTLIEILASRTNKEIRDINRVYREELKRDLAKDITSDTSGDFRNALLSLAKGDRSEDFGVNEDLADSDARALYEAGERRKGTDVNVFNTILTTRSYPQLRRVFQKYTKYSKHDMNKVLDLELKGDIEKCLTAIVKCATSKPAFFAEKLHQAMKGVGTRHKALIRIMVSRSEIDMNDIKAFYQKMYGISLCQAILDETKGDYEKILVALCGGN
Assay: co-IP; lysates of 293 cells transfected with Flag-tagged gE constructs (48 h); IP with anti-Anx-A1 Ab; western blot for Flag

| Substance | binding |
| --- | --- |
| Flag-tagged gE without the extracellular domain (Δ1–421) (from UniProt P04488) (domain or fragment) | no binding |
| Flag-tagged gE without the cytoplasmic tail (Δ447–550) (from UniProt P04488) (domain or fragment) | binds |
